No constants are given. Whether binding was seen depends on the method and setting. Some entries that bind do so weakly or less than the wild type.
What was measured:
[1] = target: myc-tagged Orai1 (UniProt Q96D31); test: pull-down; myc-tagged Orai1 and Stim1 immunoprecipitated from HEK293 cells, beads incubated with purified recombinant α-SNAP WT or M105I for 1 hr at 4°C, washed three times, eluted in SDS sample buffer, western blot; both purified
[2] = target: myc-tagged Stim1 (UniProt Q13586); test: as above

Protein sequences, listed by entry. Tags and fused reporters are not part of them. Residues count along the entry.
UniProt Q96D31: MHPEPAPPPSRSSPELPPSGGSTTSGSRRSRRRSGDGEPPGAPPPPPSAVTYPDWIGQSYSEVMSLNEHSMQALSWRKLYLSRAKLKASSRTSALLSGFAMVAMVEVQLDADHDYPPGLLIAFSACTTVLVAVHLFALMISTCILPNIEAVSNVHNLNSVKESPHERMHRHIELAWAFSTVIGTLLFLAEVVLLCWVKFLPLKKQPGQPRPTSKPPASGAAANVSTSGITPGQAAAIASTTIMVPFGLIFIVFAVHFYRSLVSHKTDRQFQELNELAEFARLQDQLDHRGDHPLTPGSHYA
UniProt Q13586, residues 23-685: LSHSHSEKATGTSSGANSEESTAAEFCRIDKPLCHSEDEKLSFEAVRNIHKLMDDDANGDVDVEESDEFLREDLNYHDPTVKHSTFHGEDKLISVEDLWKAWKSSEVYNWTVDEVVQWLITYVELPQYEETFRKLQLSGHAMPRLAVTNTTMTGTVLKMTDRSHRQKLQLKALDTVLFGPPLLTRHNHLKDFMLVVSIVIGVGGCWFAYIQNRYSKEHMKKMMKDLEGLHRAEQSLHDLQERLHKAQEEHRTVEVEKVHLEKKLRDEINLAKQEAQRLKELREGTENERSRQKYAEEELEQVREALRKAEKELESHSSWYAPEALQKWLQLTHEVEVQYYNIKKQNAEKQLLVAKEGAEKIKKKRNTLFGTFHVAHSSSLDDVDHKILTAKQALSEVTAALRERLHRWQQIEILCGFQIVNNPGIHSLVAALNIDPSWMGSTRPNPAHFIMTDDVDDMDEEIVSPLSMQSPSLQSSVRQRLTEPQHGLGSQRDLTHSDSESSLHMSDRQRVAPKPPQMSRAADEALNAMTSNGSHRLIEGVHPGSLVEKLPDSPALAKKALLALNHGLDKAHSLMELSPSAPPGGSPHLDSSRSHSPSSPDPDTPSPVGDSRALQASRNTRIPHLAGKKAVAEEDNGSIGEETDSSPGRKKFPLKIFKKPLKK

B1: α-SNAP M105I, purified recombinant (protein, UniProt Q9DB05 1-295)
chain: MDNSGKQAEAMALLAEAERKVKNSQSFFSGLFGGSSKIEEACEIYARAANMFKMAKNWSAAGNAFCQAAQLHLQLQSKHDAATCFVDAGNAFKKADPQEAINCLIRAIEIYTDMGRFTIAAKHHISIAEIYETELVDVEKAIAHYEQSADYYKGEESNSSANKCLLKVAGYAAQLEQYQKAIDIYEQVGTSAMDSPLLKYSAKDYFFKAALCHFCIDMLNAKLAVQKYEELFPAFSDSRECKLMKKLLEAHEEQNVDSYTEAVKEYDSISRLDQWLTTMLLRIKKTIQGDEEDLR
[1]
  binding: binds
[2]
  binding: binds

B2: α-soluble NSF-attachment protein (α-SNAP), wild type, purified recombinant (protein, UniProt Q9DB05 1-295)
chain: MDNSGKQAEAMALLAEAERKVKNSQSFFSGLFGGSSKIEEACEIYARAANMFKMAKNWSAAGNAFCQAAQLHLQLQSKHDAATCFVDAGNAFKKADPQEAINCLMRAIEIYTDMGRFTIAAKHHISIAEIYETELVDVEKAIAHYEQSADYYKGEESNSSANKCLLKVAGYAAQLEQYQKAIDIYEQVGTSAMDSPLLKYSAKDYFFKAALCHFCIDMLNAKLAVQKYEELFPAFSDSRECKLMKKLLEAHEEQNVDSYTEAVKEYDSISRLDQWLTTMLLRIKKTIQGDEEDLR
[1]
  binding: binds
[2]
  binding: binds

Reference: article PMC5459575
